Results on 37 molecules are retold here after PubChem BioAssay AID2685 (National Center for Advancing Translational Sciences (NCATS), 2010).

The nature of this experiment: qHTS Assay for Lipid Storage Modulators in Drosophila S3 Cells.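 As to cell number change: cells counted by Cell Tracker Red CMTPX staining in the red channel.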 To be noted: BODIPY lipid droplet fluorescence, 18-24 h; for cell number change: measured here: cell count max response, cells fed with added oleic acid. The method in brief: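 Laser-scanning cytometry quantifies lipid droplet accumulation (500–530 nm total intensity; droplet/cell object ratio) in oleic acid-fed (400 uM added) Drosophila S3 cells treated with a concentration series. 20 uM Triacsin C defined 100% inhibition.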
In general terms: qHTS replaces the single test concentration by a dilution series.

Where [1] appears, read: measured here: cell number channel AC50, cells fed with added oleic acid.
The mark [2] stands for this setting: measured here: lipid fluorescence (Fed channel) AC50, cells fed with added oleic acid.

Some of the results follow. These are further read-outs of the screen, such as a control signal, another cell line or another target. No call is given for them. The list favours compounds with an active or inconclusive main result. The note in brackets gives the kind of curve behind each potency; many fits are weak.

Consider `Cn1cccc1/C=N/NC(=O)CNc1ccc2ccccc2c1`, for which the cell number change amounted to 15.6%. Moreover, the AC50 (usually the midpoint of the concentration-response curve, whichever way the signal moves) under setting [1] was 2.31 µM [rising, single point]. The concentration at half-maximal activity (AC50) under setting [2] was 2.06 µM [rising, partial curve, poor fit]. As to `COc1ccccc1NC(=O)CN1CCN(CC(=O)Nc2ccc(S(N)(=O)=O)cc2)CC1`, the AC50 under setting [1] was 6.51 µM [rising, single point].

On to `CSc1nc(NCCOCCO)c2sc3nc(-c4ccco4)c4c(c3c2n1)CCC4`, for which the cell number change is 20.7%. Besides, the AC50 under setting [1] is 1.64 µM [rising, full curve, poor fit]. Further, the AC50 under setting [2] is 6.51 µM [rising, single point]. Turning to `Cc1nnc2ccc(-c3cccc(NC(=O)c4ccc(Cl)nc4)c3)nn12`, the cell number change is -23.7%. For the same molecule, the AC50 under setting [2] is 1.84 µM [falling, full curve, poor fit]. Turning to `CCn1c(COc2ccc3c(c2)OCO3)nnc1SCC(=O)c1ccc(Cl)cc1`, the cell number change is 20.5%. For the same molecule, under setting [2], the AC50 is 0.291 µM [rising, partial curve, poor fit]. As to `CCCN(CC(=O)Nc1ccccc1C)CC(=O)Nc1ccc(Br)cc1F`, under setting [2], the AC50 is 29.1 µM [rising, single point]. `OC(CNc1nc(C(F)(F)F)nc2ccccc12)c1ccccc1` (configuration not stated): the cell number change is -11.5%. Turning to `CC(C)c1ccc(S(=O)(=O)/N=C2\C=C(NS(=O)(=O)c3ccccc3)C(=O)c3ccccc32)cc1`, the cell number change is -19.7%. The AC50 under setting [2] is 35.5 µM [rising, single point]. Take `Cc1ccc(S(=O)(=O)CC(=O)Nc2nc3ccccc3s2)cc1`: the cell number change is 1.35%. Besides, the concentration at half-maximal activity (AC50) under setting [2] was 29.1 µM [rising, single point]. In the case of `O=C(N1CCN(c2ccccc2F)CC1)C12CC3CC(CC(C3)C1)C2`, the AC50 under setting [1] is 6.51 µM [rising, single point]. For the molecule `CCc1ccc(N(CC(=O)NCC2CCCO2)C(=O)CCC(=O)Nc2nccs2)cc1` (configuration not stated), the cell number change is -1.28%.

As for `CCOC(=O)C(CC(=O)O)=C(c1ccccc1)c1ccccc1`, the cell number change was found to be 27%. Besides, the AC50 under setting [2] is 6.51 µM [falling, single point]. As to `Cn1c(=O)c(C(=O)Nc2cnccn2)c(O)c2ccccc21`, the cell number change was found to be 0.619%. Regarding `COc1cccc(Nc2nc3ccccc3n3nnnc23)c1`, the cell number change amounted to 95.8%. In addition, the half-maximal activity concentration (AC50) under setting [1] was 1.84 µM [rising, full curve]. Further, the AC50 under setting [2] was 1.84 µM [rising, full curve]. For `CCCN(CC(=O)Nc1ccccc1OC)C(=O)c1ccc(=O)[nH]c1`, the cell number change was -13.9%.

Take `Cc1nc(-c2ccccc2)sc1C1(C)CC(c2c(Cl)cccc2Cl)=NO1` (configuration not stated): the cell number change is -6.06%. For the molecule `Cc1noc(C)c1COC(=O)Cc1ccc(Br)cc1`, the cell number change is -41.4%. Further, the AC50 under setting [1] is 20.6 µM [falling, single point]. Moreover, the AC50 under setting [2] was 0.58 µM [falling, single point]. Consider `CC(C)(C)c1ccc(OCCOc2ccc(C(C)(C)C)cc2NC=O)c(NC=O)c1`, for which the cell number change was -61.3%. Moreover, the AC50 under setting [1] was 18.4 µM [falling, single point]. Moreover, the half-maximal activity concentration (AC50) under setting [2] is 29.1 µM [falling, single point]. In the case of `CC(=O)Nc1ccc(SCC(=O)OCC(=O)NC(=O)NCc2ccco2)cc1`, the cell number change is -16.6%. Also, the concentration at half-maximal activity (AC50) under setting [1] was 0.366 µM [falling, full curve, poor fit]. Under setting [2], the AC50 was 0.731 µM [falling, full curve, poor fit]. In the case of `O=C(CSc1nnc(-c2cccc(S(=O)(=O)N3CCOCC3)c2)n1C1CCCCCC1)NCc1ccccc1`, the cell number change is -18.6%. Turning to `O/N=C(\c1ccc(Cl)cc1Cl)c1ncc(C(F)(F)F)cc1Cl`, the cell number change was -31.4%. Further, the AC50 under setting [1] is 16.4 µM [falling, single point]. The AC50 under setting [2] is 5.8 µM [falling, full curve]. In the case of `CN1C(=S)N(c2ccccc2)C(=O)/C1=C/c1ccco1`, the cell number change was -64.6%. For the same molecule, the concentration at half-maximal activity (AC50) under setting [1] is 23.1 µM [falling, single point]. Also, under setting [2], the AC50 is 23.1 µM [falling, single point]. Regarding `O=C(NC(Cc1c[nH]c2ccccc12)C(=O)NCc1ccc(F)cc1)OCc1ccccc1` (configuration not stated), the AC50 was 3.26 µM [rising, partial curve] under setting [1] and 0.517 µM [rising, partial curve, poor fit] under setting [2].

In the case of `CN1C(C(=O)NCc2ccc(OC(F)(F)F)cc2)CC2Cn3c(nc4ccccc43)C21` (configuration not stated), the cell number change is 13.5%. Also, under setting [2], the AC50 was 10.3 µM [rising, partial curve]. With `COc1cccc(-c2nc3ccccc3s2)c1`, the cell number change is -22.9%. Also, the AC50 under setting [2] was 29.1 µM [rising, single point]. For `CCCCOC(=O)c1ccc(NC(=O)C(=O)NCCN(CC)CC)cc1`, the cell number change is 21.5%. Regarding `CSc1nnc(CNS(=O)(=O)c2ccc(Cl)cc2)n1C`, the cell number change was 141%. The AC50 under setting [1] is 18.4 µM [rising, partial curve]. Further, the half-maximal activity concentration (AC50) under setting [2] was 6.51 µM [rising, single point].

`CN(C)c1ccc(CN(C(=O)COc2ccc(Br)cc2)C2CCS(=O)(=O)C2)cc1` (configuration not stated): the cell number change is -8.98%. Under setting [2], the AC50 was 4.61 µM [rising, full curve]. With `Cc1ccc2[nH]cc(CCNC(=O)C3CCCCC3)c2c1`, the cell number change stood at 22.8%. The half-maximal activity concentration (AC50) under setting [1] is 7.31 µM [rising, partial curve, poor fit]. With `O=C1C=C(c2ccc(Cl)c(C(F)(F)F)c2)C[C@@H](c2ccc3c(c2)OCO3)C1`, the cell number change is 5.22%. Also, the AC50 under setting [1] was 2.06 µM [falling, single point]. The AC50 under setting [2] was 6.51 µM [falling, single point]. `COc1ccc(CN2CCN(C3CCC3)CC2CCO)cc1C` (configuration not stated): the cell number change was found to be 7.97%.

`COc1ccccc1OCc1nnc(SCC(=O)N2CCCC2)o1`: the cell number change was -17.1%. Further, the AC50 under setting [2] is 14.1 µM [rising, single point]. Consider `Cc1ccc(S(=O)(=O)NCCC(=O)OCC(=O)Nc2cccc(S(=O)(=O)NC3=NCCCCC3)c2)cc1`, for which the cell number change was -15.6%. For the same molecule, the AC50 under setting [1] was 0.0517 µM [falling, full curve, poor fit]. As for `COc1ccc(COc2ccsc2C(=O)Nc2ccc(Cl)c(Cl)c2)cc1`, the cell number change is 16.2%. Also, the AC50 under setting [2] was 8.2 µM [rising, partial curve, poor fit]. As to `Cc1ccnc(SCCn2c(N3CCCCC3)nc3c2c(=O)n(C)c(=O)n3C)n1`, the AC50 runs as follows: under setting [1], 5.8 µM [rising, single point]; under setting [2], 0.184 µM [falling, full curve, poor fit]. As to `CCN(CC)C(=O)COC(=O)c1ccc(O)cc1`, under setting [2], the AC50 is 4.11 µM [falling, partial curve, poor fit].

Turning to `COc1ccc(NC(=O)CN2C(=O)COc3ccc(S(=O)(=O)N4CCOCC4)cc32)cc1`, the cell number change was -8.36%. In addition, under setting [2], the AC50 was 4.11 µM [rising, partial curve, poor fit].
